Measurements reported in PubChem BioAssay AID540256 (National Center for Advancing Translational Sciences (NCATS), 2011).
Where “and” joins values, the source holds several entries; their conditions need not be identical. Equal entries are not always repeated. Out of some 300,000 compounds screened, about 3,700 (1.2%) were called active. This list was built around the results that the source calls inconclusive (neither active nor inactive); the mix of calls is not that of the screen. The call rests on the fitted dose curve; tested in HEK293 cells. A potency beside an inconclusive call is a rough fit, not a confirmed value.

Assay: qHTS for Inhibitors of binding or entry into cells for Lassa Virus; further: nearly all actives have a fitted effect of over 50% in size
Conditions: Lassa virus pseudotype entry inhibition, cell reporter; series mostly up to 37.9 µM
Potency means the concentration at half of the fitted maximal effect.

| SMILES | Potency |
| --- | --- |
| O=c1[nH]c(C2CCN(S(=O)(=O)Cc3ccccc3)CC2)nc2c1nnn2Cc1ccccc1Cl | inconclusive: 2.82 µM [inhibitor, partial curve, poor fit] |
| CC1(C)CC(N=c2cc(-c3ccccc3)oc3ccc(Cl)cc23)CC(C)(C)N1 | inconclusive: 22.4 µM [inhibitor, single point] |
| CCc1noc(C)c1C(=O)Nc1ccc(S(=O)(=O)N2CCCC(C)C2)cc1 (stereo not drawn) | inactive |
| COc1cccc(C(=O)c2c[nH]c(C(=O)NCc3cccs3)c2)c1 | inconclusive: 14.6 µM [inhibitor, partial curve, poor fit] |
| COc1ccc2nc(C)cc(N3CCC(C(N)=O)CC3)c2c1 | inactive |
| Cc1cc(C)cc(NC(=O)N2CCC(C(=O)c3ccc(F)cc3)CC2)c1 | inconclusive: 7.08 µM [inhibitor, partial curve, poor fit] |
| O=C1CN(C(=O)COC(=O)CCCOc2ccccc2)c2ccccc2N1 | inconclusive: 0.562 µM [inhibitor, single point] |
| COc1ccc2c(c1)C(CC(=O)NN)CCC2 (stereo not drawn) | inconclusive: 22.4 µM [inhibitor, partial curve, poor fit] |
| COc1ccccc1CNC(=O)CSc1ccc(Br)cc1 | inactive |
| CC(=O)Nc1ccccc1OCc1nnc(-c2ccc(Cl)cc2)o1 | inactive |
| COc1ccc(CN(C)C(=O)COC(=O)c2c(-c3ccccc3Cl)noc2C)cc1 | inconclusive: 7.08 µM [inhibitor, partial curve] |
| CN1CCN(c2cc(-c3ccccc3)nc3cc(-c4ccc(F)cc4)nn23)CC1 | inconclusive: 35.5 µM [inhibitor, single point] |
| COc1cc(NC(=O)Cn2ccc3ccccc3c2=O)cc(OC)c1OC | inactive |
| CC(NC(=S)Nc1ccc(Cl)cc1)C(c1ccccc1)N1CCOCC1 (stereo not drawn) | inactive |
| Cc1ccc(C)c(/C=N/Nc2nc3ccccc3c(=O)n2O)c1 | inactive |
| CCN(CC)CCN(CC)Cc1ccccc1Br | inconclusive: 29.1 µM [inhibitor, single point] |
| CC(Sc1nnc(-c2cccs2)n1-c1ccccc1)C(=O)NCc1ccco1 (stereo not drawn) | inconclusive: 4.47 µM [inhibitor, partial curve] |
| COC(=O)C1CC(=O)c2sccc2C1 (stereo not drawn) | inconclusive: 22.4 µM [activator, single point] |
| C/C(=N/NC(=O)c1cccs1)c1ccc(NC(=O)COc2ccc(Cl)cc2Cl)cc1 | active: 13 µM |
| Cc1ccc(NC(=S)Nc2ccccn2)c(C)c1 | inconclusive: 35.5 µM [inhibitor, single point] |
| CCn1c(=O)c2c(nc(SCC(=O)NC3CCCC3)n2C)n(C)c1=O | inactive |
| Cc1cccc(N2CCN(C(=O)c3cccn4c(=O)c5c(C)c(C)sc5nc34)CC2)c1C | inconclusive: 23.1 µM [inhibitor, single point] |
| COc1ccccc1C(CNC(=O)C(C)(C)Oc1ccc(Cl)cc1)N1CCCC1 (stereo not drawn) | inconclusive: 35.5 µM [inhibitor, partial curve, poor fit] |

| SMILES | Potency |
| --- | --- |
| CC(C)c1ccc(NC(=O)C2CCCN2S(=O)(=O)c2ccc3nc(-c4ccccc4)[nH]c3c2)cc1 (stereo not drawn) | inactive |
| CCc1cc(=O)[nH]c(SCc2nc(-c3cccc(Cl)c3)no2)n1 | inconclusive: 35.5 µM [inhibitor, single point] |
| CC(C)OC(=O)NCCOC(=O)Nc1ccc(Cl)c(Cl)c1 | inconclusive: 16.4 µM [inhibitor, partial curve, poor fit] |
| O=C(CCS(=O)(=O)c1ccccc1Cl)NC1CCCCCC1 | inactive |
| COc1ccc(CN(C)C(=O)/C=C/c2ccc(S(=O)(=O)N3CCCCCC3)cc2)cc1 | active: 5.01 µM |
| COc1ccc(-c2nnc(SCC(=O)c3ccc[nH]3)o2)cc1 | inconclusive: 18.3 µM [inhibitor, single point] |
| COc1ccc(-n2nnnc2-c2cnc(N3CCCC3)nc2C(F)(F)F)cc1 | inconclusive: 25.9 µM [inhibitor, single point] |
| Clc1ccc(CN2CCSCC2)c(Cl)c1 | inactive |
| Oc1ccc(N2CCN(C(c3cccs3)c3nnnn3CCc3ccccc3)CC2)cc1 (stereo not drawn) | inconclusive: 11.2 µM [inhibitor, single point] |
| Cc1ccc(Cl)cc1N1CCN(S(=O)(=O)c2ccc3c(c2)C(C(C)C)C(=O)N3)CC1 (stereo not drawn) | inactive |
| Cc1onc(-c2ccccc2Cl)c1C(=O)N1CCCCC1 | inconclusive: 35.5 µM [inhibitor, single point] |
| CCCc1nnc(NC(=O)Cc2coc3c(C)c(C)ccc23)s1 | inactive |
| CNc1nc(NCCOC23CC4CC(CC(C4)C2)C3)nc(OCC(F)(F)F)n1 | inconclusive: 28.2 µM [inhibitor, single point] |
| COc1ccc(/C=C/C(=O)NC(=S)NNC(=O)c2cccs2)cc1OC | inconclusive: 20 µM [inhibitor, single point] |
| COc1ccc(-c2c(C)[nH]n3c(=O)c(Cc4ccccc4)c(C)nc23)cc1OC | inconclusive: 20 µM [inhibitor, partial curve, poor fit] |
| O=S(=O)(c1ccc(-c2csc(=Nc3ccc(F)cc3)n2CCCCCCO)cc1)N1CCCC1 | inconclusive: 1 µM [inhibitor, full curve, poor fit] |
| Cc1cccc(OCC(=O)Nc2ccc3c(c2)nc(CN2CCCCC2)n3C)c1 | inactive and inconclusive: 6.31 µM [inhibitor, full curve, poor fit] |
| O=C(CCl)N1N=C(c2cccs2)CC1c1ccco1 (stereo not drawn) | inconclusive: 35.5 µM [inhibitor, single point] |
| COC(=O)c1ccc2c(=O)n(Cc3ccc(C(=O)NC(C)C)cc3)c(=S)[nH]c2c1 | inconclusive: 7.08 µM [inhibitor, partial curve, poor fit] |
| CN1C(=O)C(O)(CC(=O)/C=C/c2ccco2)c2cc(Br)ccc21 (stereo not drawn) | inconclusive: 29.1 µM [inhibitor, single point] |
| CCOc1ccc(C2C(C#N)=C(C)NC3=C2C(=O)c2ccccc23)cc1 (stereo not drawn) | inconclusive: 23.1 µM [inhibitor, single point] |
| COc1ccc(C=O)cc1Cn1c(=O)n(CCC(=O)NCc2ccco2)c(=O)c2sccc21 | inconclusive: 7.94 µM [activator, partial curve] |
| O=C(/C=C/c1ccncc1)c1ccc2c(c1)OCCO2 | inconclusive: 22.4 µM [inhibitor, single point] |

Four structures already listed, ordered by SMILES length, low to high:

| SMILES | Potency |
| --- | --- |
| O=C(CCl)N1N=C(c2cccs2)CC1c1ccco1 (stereo not drawn) | inconclusive: 35.5 µM [inhibitor, single point] |
| O=C(/C=C/c1ccncc1)c1ccc2c(c1)OCCO2 | inconclusive: 22.4 µM [inhibitor, single point] |
| O=S(=O)(c1ccc(-c2csc(=Nc3ccc(F)cc3)n2CCCCCCO)cc1)N1CCCC1 | inconclusive: 1 µM [inhibitor, full curve, poor fit] |
| Cc1ccc(Cl)cc1N1CCN(S(=O)(=O)c2ccc3c(c2)C(C(C)C)C(=O)N3)CC1 (stereo not drawn) | inactive |

(list continues)

| SMILES | Potency |
| --- | --- |
| COc1ccc(-n2c(O)c(C(C)=NCc3ccco3)c(=O)[nH]c2=O)cc1 | inconclusive: 7.94 µM [inhibitor, partial curve, poor fit] |
| COc1cccc(-c2oc3ccc(C)cc3c(=O)c2O)c1 | inconclusive: 20 µM [activator, partial curve, poor fit] |
| CCOc1ccc(S(=O)(=O)Nc2cc(Cl)ccc2O)cc1 | inconclusive: 35.5 µM [inhibitor, single point] |
| CCCCOC(=O)C[N+](C)(C)CCOC1CC2CCC1(C)C2(C)C (stereo not drawn) | inactive |
| CC(C)(C)c1ccc(CSc2nc(N)cc(=O)[nH]2)cc1 | inactive |
| CCc1ccc(NC(=O)C2CCN(S(=O)(=O)c3cccc(-c4noc(C)n4)c3)CC2)cc1 | inconclusive: 35.5 µM [inhibitor, single point] |
| CCCc1ccc(NC(=O)C2CCCN(c3cnccn3)C2)cc1 (stereo not drawn) | inactive |
| O=C(CNc1ccc2ccccc2c1)N/N=C/c1ccc([N+](=O)[O-])o1 | inactive |
| O=C(CCN1C(=O)/C(=C/c2ccccc2Cl)SC1=S)NNC(=O)c1ccccc1O | inconclusive: 6.31 µM [inhibitor, partial curve, poor fit] |
| CC(=O)c1ccc(NC(=O)CC2Nc3cc(C)c(C)cc3NC2=O)cc1 (stereo not drawn) | inactive |
| Cc1ccccc1C(=O)NNc1ncnc2c1cnn2-c1cccc(Cl)c1 | inconclusive: 8.91 µM [inhibitor, partial curve, poor fit] |
| Cc1ccc(CNC(=O)CSc2nc3ccsc3c(=O)n2-c2ccc(Br)cc2)cc1 | inactive |
| O=C(CSc1nnc2ccc(-c3ccc(F)cc3)nn12)NCC1CCCO1 (stereo not drawn) | inconclusive: 35.5 µM [activator, partial curve, poor fit] |
| O=C(NC(NC(=S)Nc1ccccc1Cl)C(Cl)(Cl)Cl)c1cccc(Cl)c1 (stereo not drawn) | inconclusive: 22.4 µM [inhibitor, single point] |
| Cc1cccc(N2CCN(CC(=O)Nc3nccs3)CC2)c1C | inconclusive: 16.4 µM [inhibitor, single point] |
| CN1CCN(C(c2ccc(C(F)(F)F)cc2)c2ccc3cccnc3c2O)CC1 (stereo not drawn) | active: 7.94 µM |
| Cc1ccc(C(Sc2ccccc2)C(Cn2cncn2)C(=O)c2ccccc2)cc1 (stereo not drawn) | inconclusive: 6.31 µM [inhibitor, full curve, poor fit] |
| Cc1nn(CC2CC2)c(=O)n1-c1ccccc1F | inconclusive: 10 µM [activator, partial curve, poor fit] |
| C[C@@H](C(=O)Nc1nc(-c2ccccn2)cs1)N1C(=O)C2CCCCC2C1=O (stereo partly drawn) | inconclusive: 14.1 µM [inhibitor, partial curve] |
| Cc1nc(C)c(-c2ccc(SCC(=O)Nc3cccc(C)c3C)nn2)s1 | inactive |
| O=C(c1ccc(F)c(S(=O)(=O)N2CCOCC2)c1)N(c1ccccc1)c1ccccn1 | inconclusive: 1.26 µM [inhibitor, single point] |
| Cc1ccc(-n2ncc(C(=O)NCCN3CCN(C)CC3)c2C2CCN(C(=O)OC(C)(C)C)CC2)cc1 | inactive |
